For one substance, binding results are on record in paper PMC9646764.

Chains of the proteins cited; added tags and fusions are not shown. Residues count along the entry.
UniProt P10646, residues 29-209: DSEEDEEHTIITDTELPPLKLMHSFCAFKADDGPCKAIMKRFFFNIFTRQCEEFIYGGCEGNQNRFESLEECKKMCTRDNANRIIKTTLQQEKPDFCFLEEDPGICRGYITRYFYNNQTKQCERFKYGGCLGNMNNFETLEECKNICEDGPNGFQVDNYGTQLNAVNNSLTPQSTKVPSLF
UniProt O54819, residues 29-217: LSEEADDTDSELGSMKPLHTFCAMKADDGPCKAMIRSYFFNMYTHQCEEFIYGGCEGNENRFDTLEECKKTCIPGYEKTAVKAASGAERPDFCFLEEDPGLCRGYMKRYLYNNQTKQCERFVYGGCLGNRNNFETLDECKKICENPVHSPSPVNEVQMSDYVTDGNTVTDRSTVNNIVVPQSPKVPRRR
UniProt P18177: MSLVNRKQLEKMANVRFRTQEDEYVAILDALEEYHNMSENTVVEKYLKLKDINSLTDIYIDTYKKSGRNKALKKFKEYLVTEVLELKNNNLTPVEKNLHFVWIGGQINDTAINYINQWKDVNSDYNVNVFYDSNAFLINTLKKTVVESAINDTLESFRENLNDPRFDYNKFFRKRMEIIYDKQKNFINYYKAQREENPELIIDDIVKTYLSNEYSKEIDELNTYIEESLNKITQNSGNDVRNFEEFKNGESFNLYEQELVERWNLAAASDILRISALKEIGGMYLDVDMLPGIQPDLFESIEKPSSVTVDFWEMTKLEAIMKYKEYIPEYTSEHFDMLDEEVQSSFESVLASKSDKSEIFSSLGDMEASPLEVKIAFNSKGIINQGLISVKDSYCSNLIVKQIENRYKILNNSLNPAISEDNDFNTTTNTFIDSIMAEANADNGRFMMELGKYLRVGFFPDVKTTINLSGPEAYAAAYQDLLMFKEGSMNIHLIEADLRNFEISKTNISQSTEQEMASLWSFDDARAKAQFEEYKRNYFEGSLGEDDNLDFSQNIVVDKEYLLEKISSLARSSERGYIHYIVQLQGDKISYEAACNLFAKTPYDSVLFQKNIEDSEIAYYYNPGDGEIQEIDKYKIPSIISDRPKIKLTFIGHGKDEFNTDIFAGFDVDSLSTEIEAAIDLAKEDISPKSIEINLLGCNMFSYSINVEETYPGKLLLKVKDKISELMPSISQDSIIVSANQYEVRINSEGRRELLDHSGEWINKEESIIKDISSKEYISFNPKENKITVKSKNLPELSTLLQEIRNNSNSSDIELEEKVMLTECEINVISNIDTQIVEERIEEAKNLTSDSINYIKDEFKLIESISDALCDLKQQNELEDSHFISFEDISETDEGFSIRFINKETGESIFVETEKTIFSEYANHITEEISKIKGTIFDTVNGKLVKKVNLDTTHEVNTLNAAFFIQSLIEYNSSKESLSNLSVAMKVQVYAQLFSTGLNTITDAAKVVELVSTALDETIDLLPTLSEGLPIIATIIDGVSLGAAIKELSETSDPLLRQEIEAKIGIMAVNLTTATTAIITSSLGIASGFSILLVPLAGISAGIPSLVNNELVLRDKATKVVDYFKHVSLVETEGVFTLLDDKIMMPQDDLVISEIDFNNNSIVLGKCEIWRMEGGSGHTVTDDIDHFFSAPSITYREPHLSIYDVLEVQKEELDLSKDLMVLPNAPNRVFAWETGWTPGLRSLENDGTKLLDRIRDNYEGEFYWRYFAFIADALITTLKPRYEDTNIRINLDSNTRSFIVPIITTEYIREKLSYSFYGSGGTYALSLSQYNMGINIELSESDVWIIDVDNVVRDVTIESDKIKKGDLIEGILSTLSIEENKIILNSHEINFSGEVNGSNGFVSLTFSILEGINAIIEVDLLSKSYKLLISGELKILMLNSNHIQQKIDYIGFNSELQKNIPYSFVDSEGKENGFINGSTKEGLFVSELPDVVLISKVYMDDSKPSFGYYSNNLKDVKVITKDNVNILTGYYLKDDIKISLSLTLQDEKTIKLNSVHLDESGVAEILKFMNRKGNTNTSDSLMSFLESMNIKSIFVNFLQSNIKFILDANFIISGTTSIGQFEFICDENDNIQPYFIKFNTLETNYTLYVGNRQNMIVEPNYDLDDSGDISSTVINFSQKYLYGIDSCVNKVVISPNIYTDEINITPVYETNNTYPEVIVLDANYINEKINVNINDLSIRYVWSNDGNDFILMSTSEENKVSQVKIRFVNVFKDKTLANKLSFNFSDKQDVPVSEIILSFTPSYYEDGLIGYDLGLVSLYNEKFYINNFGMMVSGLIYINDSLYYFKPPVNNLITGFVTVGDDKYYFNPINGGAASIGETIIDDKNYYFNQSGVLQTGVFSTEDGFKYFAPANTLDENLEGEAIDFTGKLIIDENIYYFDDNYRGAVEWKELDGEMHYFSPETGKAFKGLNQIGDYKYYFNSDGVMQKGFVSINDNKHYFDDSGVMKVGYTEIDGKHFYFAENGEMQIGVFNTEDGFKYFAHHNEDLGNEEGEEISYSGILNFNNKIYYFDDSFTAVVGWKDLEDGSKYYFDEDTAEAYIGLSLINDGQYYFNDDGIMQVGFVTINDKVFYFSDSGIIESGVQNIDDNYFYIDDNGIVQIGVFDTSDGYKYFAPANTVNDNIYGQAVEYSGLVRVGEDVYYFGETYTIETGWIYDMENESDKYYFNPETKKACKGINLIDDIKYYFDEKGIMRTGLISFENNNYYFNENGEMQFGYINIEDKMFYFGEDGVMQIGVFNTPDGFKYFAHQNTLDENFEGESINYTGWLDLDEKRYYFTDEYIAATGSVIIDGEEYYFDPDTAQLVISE

Results are given in words; binding and its absence hold for the method and conditions named.

Experiment [1] deals with TFPI-Fc (human IgG-Fc-tagged TFPI without the GPI anchor) (UniProt P10646). As to the kind of experiment: BLI; […] (10 ug/mL) […] (BLItz, ForteBio), […] (0.5% BSA); […]; dissociation in DPBS (0.5% BSA); both purified. (In general: BLI is a label-free optical method that tracks binding on a fibre tip over time.)
For experiment [2], the target named is mTFPI-Fc (Fc-tagged mouse TFPI) (mouse) (UniProt O54819). The description is as above.

Regarding “TcdB1.1 (recombinant toxin B of reference strain VPI10463) (from UniProt P18177 1-2366)”, the binding entry in experiment [1] and in experiment [2] was “no binding” each time.
